Test results: PMC5821868
No constants are given. Whether binding was seen depends on the method and setting. Some results given as binding are weak or reduced against the parent protein; the word gives no strength.

By UniProt entry, the sequences of proteins in these tests, tags left out. Residues count along the entry.
UniProt Q8N423, residues 22-460: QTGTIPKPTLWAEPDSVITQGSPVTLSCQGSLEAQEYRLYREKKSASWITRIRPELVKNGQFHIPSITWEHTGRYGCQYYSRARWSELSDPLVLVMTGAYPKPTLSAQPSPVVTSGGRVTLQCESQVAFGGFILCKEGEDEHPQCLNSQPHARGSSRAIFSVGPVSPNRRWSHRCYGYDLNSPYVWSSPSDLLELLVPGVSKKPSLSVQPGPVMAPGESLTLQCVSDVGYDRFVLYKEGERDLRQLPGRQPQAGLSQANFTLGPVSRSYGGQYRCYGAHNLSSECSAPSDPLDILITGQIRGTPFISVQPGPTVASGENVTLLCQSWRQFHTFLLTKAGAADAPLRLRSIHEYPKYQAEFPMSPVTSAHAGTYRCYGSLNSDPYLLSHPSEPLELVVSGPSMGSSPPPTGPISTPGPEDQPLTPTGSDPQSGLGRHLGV

Molecular target: T1, SEMA4A expressed on transfected H9 cells (human) (UniProt Q9H3S1)
T1 sequence: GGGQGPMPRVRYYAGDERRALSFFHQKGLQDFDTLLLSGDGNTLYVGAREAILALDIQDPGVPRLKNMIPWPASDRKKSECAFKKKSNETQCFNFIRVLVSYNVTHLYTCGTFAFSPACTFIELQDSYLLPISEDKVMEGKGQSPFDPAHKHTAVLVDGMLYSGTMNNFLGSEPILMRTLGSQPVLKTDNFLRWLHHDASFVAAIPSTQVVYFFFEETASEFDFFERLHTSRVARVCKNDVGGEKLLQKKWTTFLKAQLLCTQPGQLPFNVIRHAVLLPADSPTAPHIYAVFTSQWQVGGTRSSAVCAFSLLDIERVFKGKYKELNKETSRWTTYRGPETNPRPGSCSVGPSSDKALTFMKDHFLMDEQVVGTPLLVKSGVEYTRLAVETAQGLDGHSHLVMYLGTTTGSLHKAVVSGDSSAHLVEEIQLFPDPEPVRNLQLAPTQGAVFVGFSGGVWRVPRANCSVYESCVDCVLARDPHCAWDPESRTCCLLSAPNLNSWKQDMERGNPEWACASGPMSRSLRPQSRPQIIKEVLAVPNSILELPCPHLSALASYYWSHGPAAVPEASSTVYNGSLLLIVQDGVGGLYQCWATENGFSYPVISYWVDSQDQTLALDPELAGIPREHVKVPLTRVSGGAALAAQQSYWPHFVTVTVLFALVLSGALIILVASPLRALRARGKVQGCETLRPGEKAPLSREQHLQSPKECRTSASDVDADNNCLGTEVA
Assay: flow cytometry on cells; SEMA4A-transfected H9 cells stained with ILT-4-Fc, with or without an excess of anti-SEMA4A mAb or mIgG; hIgG as control; only the binder purified

For “recombinant ILT-4-Fc fusion protein (R&D Systems) (from UniProt Q8N423 22-460)”, the binding was “binds”.
